# The campaign covered roughly 330,000 compounds. About 7,700 (2.3%) were called active. This list was built around the results that the source calls inconclusive (neither active nor inactive); the mix of calls is not that of the screen. Calls come from the whole dose curve; as a rule, active = well fitted inhibition curve with a large enough effect; inconclusive = small, poorly fitted or top-dose-only effect, or effect the other way; inactive = flat fitted curve, though single readings scatter. A potency beside an inconclusive call is a rough fit, not a confirmed value.
# Test: qHTS screen for small molecules that inhibit ELG1-dependent DNA repair in human embryonic kidney (HEK293T) cells expressing luciferase-tagged ELG1; note: nearly all actives have a fitted effect of over 55% in size
# Conditions: HEK293T ELG1-luciferase reporter, luminescence, 16 h, DNA damage induced by 5-fluorouridine; activity change, negative = inhibition: at 46.1 µM (top of the series)
# Procedure, shortened: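 HEK293T cells expressing luciferase-tagged ELG1 (2,000/well) received 5-Fluorouridine plus compound or DMSO for 16 hr at 37 °C. Luciferase was read by ONE-Glo luminescence after 30 min at room temperature.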
# % is set by controls: 0 for no effect and ±100 for the full control effect; potency is the fitted concentration of half-maximal effect.
SMILES,Potency,"activity change, negative = inhibition"
CN(CC(=O)Nc1ccc(S(=O)(=O)N2CCCC2)cc1)Cc1ccc(Cl)cc1Cl,"inconclusive: 23.1 µM [inhibitor, partial curve, poor fit]",
CCOc1c(S(=O)(=O)NC2CC(C)(C)NC(C)(C)C2)ccc(Cl)c1Cl,,inactive: -6.21%
CCOC(=O)N/N=C/c1ccc(Oc2ccccc2)cc1,"inconclusive: 10.3 µM [activator, partial curve]",
c1ccc2c(NCC3CCCO3)nc(N3CCCCC3)nc2c1 (stereo unspecified),"inconclusive: 20.6 µM [inhibitor, partial curve, poor fit]",
COc1cc(/C=C/C(=O)OCC(=O)Nc2ccc(C)c(S(=O)(=O)N3CCCCC3)c2)ccc1O,"inconclusive: 25.9 µM [inhibitor, single point]",
Cc1cccc(C)c1C(=NCCCN(C)C)c1ccccc1,,inactive: -6.83%
c1nc(CCO[C@H]2CCCCO2)cc2cc3c(cc12)OCO3,"inconclusive: 0.517 µM [activator, full curve]",
COc1ccc(Nc2nc3ccccc3n3nnnc23)cc1,,inactive: 0%
O=C(Nc1nc(-c2ccc3c(c2)OCO3)cs1)C1CC1,"inconclusive: 9.2 µM [activator, partial curve]",
CC(OC(=O)Cn1[nH]c(=O)c2ccccc2c1=O)C(=O)NC1(C#N)CCCCC1 (stereo unspecified),,inactive: -0.0922%
COc1ccc(/C=C/C(=O)OCC(=O)Nc2ccc(N3CCOCC3)cc2)cc1OC,,inactive: 17.3%
CCc1nnc(NC(=O)CSc2nnc(-c3ccccc3NC(=O)c3ccccc3)o2)s1,,inactive: -6.75%
CCC(Sc1nc2cc(OC)c(OC)cc2c(=O)n1Cc1ccc(OC)cc1)C(=O)NCCOC (stereo unspecified),"inconclusive: 8.2 µM [inhibitor, partial curve]",
CCC1CCCCN1CCN1C(=O)C2C(C(=O)Nc3ccc(OC)cc3)C3C=CC2(O3)C1C(=O)NC1CCCCC1 (stereo unspecified),"inconclusive: 18.3 µM [activator, partial curve, poor fit]",
CCc1nnc(NC(=O)/C=C/c2ccc(C)o2)s1,"inconclusive: 13 µM [activator, partial curve]",
CC(C)Nc1ccc(Nc2ccnc3cc4ccccc4cc23)cc1,,inactive: 29.2%
CC(Oc1ccccc1)C(=O)N1CCN(C(=O)C(C)Oc2ccccc2)CC1 (stereo unspecified),active: 6.51 µM,
CC(=O)c1ccc(NC(=O)c2cc(S(=O)(=O)N3CCOCC3)ccc2C)cc1,,inactive: -8.13%

SMILES,Potency,"activity change, negative = inhibition"
COc1ccc(-n2c(=S)[nH]c3cc(C(=O)Nc4ccc(F)cc4)ccc3c2=O)c(OC)c1,"inconclusive: 16.4 µM [inhibitor, single point]",
Cc1ccc(C(=O)N/C(=C\c2cccs2)C(=O)NCCc2c[nH]c3ccccc23)cc1,,inactive: -7.55%
COc1ccc(-c2nc(CC(=O)O)cs2)cc1,,inactive: 7.66%
CCOc1ccc(-n2cnnn2)cc1S(=O)(=O)Nc1c(C)cccc1C,,inactive: 7.41%
CC1CCN(C(=O)c2cccc(NC(=O)c3cccs3)c2)CC1,"inconclusive: 20.6 µM [inhibitor, partial curve, poor fit]",
Cc1noc(NC(=O)c2c(-c3c(Cl)cccc3Cl)noc2C)c1[N+](=O)[O-],"inconclusive: 18.3 µM [inhibitor, single point]",
CCN(CC)C(=O)c1ccc(-c2cccs2)s1,"inconclusive: 18.3 µM [activator, partial curve]",
Brc1cccc(OCCCN2CCCCCC2)c1,,inactive: -0.413%
O=C(N/N=C/c1ccccc1)c1c(O)c2ccccc2[nH]c1=O,"inconclusive: 2.59 µM [activator, full curve]",
COc1ccc(/C(N)=N/OC(=O)c2ccco2)cc1,"inconclusive: 1.16 µM [activator, partial curve]",
CCN1CCN(CC(O)COc2cccc(OC)c2)CC1 (stereo unspecified),,inactive: 1.97%
COc1ccccc1CCNC(=O)COc1cccc2c1OC(C)(C)C2,"inconclusive: 29.1 µM [inhibitor, partial curve, poor fit]",
COc1ccc(NC(=O)NC2CCCCCCC2)c(OC)c1,"inconclusive: 18.3 µM [activator, single point]",
O=C(C[C@@H]1C/C=C\C[C@@H](Cc2ccc(F)cc2)C(=O)OC[C@@H]2CCCN2C1=O)N[C@H](CO)Cc1ccccc1,,inactive: -1.66%
CCN(CC)c1ccc(-c2nnc(SCC(=O)Nc3ccccc3C#N)n2-c2ccccc2)cc1,"inconclusive: 16.4 µM [inhibitor, single point]",
Cc1cc(C)c2c(c1)cc(C)c1nnc(SCC(=O)Nc3ccccc3N3CCOCC3)n12,"inconclusive: 9.2 µM [inhibitor, partial curve, poor fit]",
O=C1CCCC(O)=C1N=Nc1cccc(S(=O)(=O)N2CCOCC2)c1,"inconclusive: 16.4 µM [inhibitor, single point]",
CCN1CCN(C(=O)c2ccc3c(c2)N(Cc2ccccc2)C(=O)c2ccccc2S3(=O)=O)CC1,,inactive: 21.6%

# For reference, part of the list above:
SMILES,Potency,"activity change, negative = inhibition"
Cc1ccc(C(=O)N/C(=C\c2cccs2)C(=O)NCCc2c[nH]c3ccccc23)cc1,,inactive: -7.55%
COc1ccc(-c2nc(CC(=O)O)cs2)cc1,,inactive: 7.66%
CCOc1ccc(-n2cnnn2)cc1S(=O)(=O)Nc1c(C)cccc1C,,inactive: 7.41%
